# Experimental data: PubChem BioAssay AID504774 (Drosophila RNAi Screening Center, 2011)
# Aim: 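Fly genes whose loss alters survival after alkylation damage to DNA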 (primary screen)
# Cell system: Drosophila Kc167 cells
# Reagent: long dsRNA against Drosophila genes, about 0.25 µg dsRNA per well
# Timing: about 6 days: 3 days knock-down, then 3 days with or without MMS
# Challenge: methyl methanesulphonate 0.004% (w/v) for 3 days after knock-down
# Measured: 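ATP-dependent luminescence as a measure of live cells in MMS-exposed wells, quantile normalised within each plate, with replicate values also given as a mean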
# Scale: mean viability with MMS and viability with MMS: higher = more surviving cells after MMS
# The screen tested about 23,000 reagents; shown is a random part of those with a known target gene and a result. 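Values are quantile-normalised luminescence on an arbitrary scale; higher means more cells surviving MMS.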 Names joined by + are all predicted targets of the reagent. No sequences are given here.
Gene,dsRNA,mean viability with MMS,"viability with MMS, replicate 1","viability with MMS, replicate 2"
CG3225,DRSC00578,3.52e6,3.90e6,4.06e6
krimp,DRSC06578,3.54e6,3.95e6,4.06e6
GlyRS,DRSC10711,3.50e6,4.01e6,3.91e6
hbt,DRSC02503,3.43e6,3.83e6,3.96e6
hbt,DRSC23270,3.63e6,4.15e6,4.10e6
CG31677,DRSC22023,3.65e6,4.12e6,4.09e6
eIF5B,DRSC08429,3.49e6,3.94e6,3.98e6
eIF5B,DRSC08710,3.37e6,3.82e6,3.82e6
r-cup,DRSC20475,3.43e6,3.95e6,3.83e6
CG42542,DRSC15549,3.59e6,3.95e6,4.23e6
CG42542,DRSC22264,3.45e6,3.99e6,3.87e6
CG3347,DRSC00597,3.76e6,4.28e6,4.09e6
Tudor-SN,DRSC08581,3.44e6,3.87e6,3.95e6
Mco3,DRSC15926,3.67e6,4.11e6,4.21e6
mRpL1,DRSC16251,3.44e6,3.90e6,3.92e6
CG7409,DRSC10842,3.52e6,4.01e6,3.99e6
CG14785,DRSC18604,3.39e6,3.88e6,3.84e6
CG9030,DRSC20139,3.51e6,3.96e6,4.00e6
mTTF,DRSC01909,3.54e6,4.02e6,4.01e6
CG11151,DRSC19387,3.61e6,4.33e6,3.85e6
CG3500,DRSC04379,3.59e6,4.05e6,4.11e6
CG31404,DRSC15497,3.55e6,3.88e6,4.16e6
CG14118,DRSC10122,3.55e6,4.08e6,3.96e6
CG11417,DRSC18581,3.33e6,3.77e6,3.81e6
His2Av,DRSC16702,3.43e6,3.92e6,3.88e6
CG2656,DRSC12584,3.67e6,4.18e6,4.17e6
CG11379,DRSC18629,3.39e6,3.84e6,3.87e6
Ing3,DRSC20002,3.51e6,3.63e6,3.61e6
Tsen34,DRSC22932,3.62e6,4.08e6,4.08e6
CG9593,DRSC16508,3.69e6,4.25e6,4.12e6
CG6041,DRSC18396,3.83e6,4.68e6,4.04e6
CG1572,DRSC19686,3.68e6,4.05e6,4.35e6
tant,DRSC11401,3.42e6,3.84e6,3.91e6
CG6310,DRSC10619,3.75e6,4.10e6,4.32e6
CG31253 + CG31131,DRSC13839,3.52e6,3.90e6,4.09e6
CG16984,DRSC08500,3.63e6,4.18e6,4.01e6
Osi9,DRSC12278,1.82e6,4.00e6,3.98e6
PGRP-SD,DRSC10856,3.58e6,4.04e6,4.10e6
ppk23,DRSC20110,3.45e6,3.88e6,3.94e6
Rab39,DRSC17827,3.45e6,3.98e6,3.86e6
CG13476,DRSC10019,3.56e6,4.05e6,4.03e6
dpr4,DRSC14531,3.59e6,4.00e6,4.10e6
dpr4,DRSC14929,3.61e6,4.05e6,4.10e6
fs(1)Ya,DRSC18776,3.40e6,3.84e6,3.90e6
fs(1)Ya,DRSC23058,3.61e6,4.08e6,4.11e6
spo,DRSC11127,3.49e6,3.97e6,3.94e6
CG32820 + CG17450 + CG32819,DRSC21803,3.58e6,4.02e6,4.10e6
CG32820 + CG17450 + CG32819,DRSC22812,3.53e6,3.99e6,4.03e6

A few values from the list.
CG42542 [DRSC15549], mean viability with MMS: 3.59e6
Value of CG7409 [DRSC10842] under “viability with MMS, replicate 2”: 3.99e6
For “mean viability with MMS”, Tsen34 [DRSC22932] reads 3.62e6
Value of Ing3 [DRSC20002] in “viability with MMS, replicate 2”: 3.61e6
Value of mTTF [DRSC01909] under “mean viability with MMS”: 3.54e6
Tudor-SN [DRSC08581], viability with MMS, replicate 2: 3.95e6

The listing continues:
Gene,dsRNA,mean viability with MMS,"viability with MMS, replicate 1","viability with MMS, replicate 2"
CG31681,DRSC00107,3.61e6,4.18e6,4.01e6
Ppcs,DRSC14127,3.53e6,4.03e6,3.99e6
CG15544,DRSC15082,3.67e6,4.20e6,4.12e6
Pepck2,DRSC06013,3.56e6,4.10e6,3.96e6
Rab21,DRSC20968,3.24e6,3.75e6,3.74e6
Tmlh,DRSC15563,3.55e6,3.90e6,4.16e6
qtc,DRSC02364,3.63e6,4.16e6,4.11e6
qtc,DRSC02365,3.31e6,3.78e6,3.64e6
CG32445,DRSC11678,3.63e6,4.22e6,4.00e6
Rpn13R,DRSC18404,3.44e6,3.89e6,3.91e6
Tace,DRSC16340,3.69e6,4.16e6,4.16e6
CG12341,DRSC06133,3.44e6,3.88e6,3.93e6
Blm + CG14721,DRSC14943,3.44e6,3.90e6,3.94e6
CG7271,DRSC22561,3.49e6,4.02e6,3.93e6
IFT43,DRSC02892,3.60e6,4.15e6,4.05e6
RhoGAP18B,DRSC19763,3.66e6,4.17e6,4.07e6
RhoGAP18B,DRSC20047,3.57e6,4.12e6,3.97e6
RhoGAP18B,DRSC20048,3.55e6,4.04e6,4.02e6
RhoGAP18B,DRSC20049,3.43e6,3.94e6,3.84e6
S,DRSC00785,3.38e6,3.77e6,3.84e6
Ocho,DRSC11239,3.51e6,4.03e6,3.93e6
Gapdh1,DRSC07433,3.54e6,4.10e6,3.91e6
Act88F,DRSC14105,3.38e6,3.84e6,3.81e6
Mad1,DRSC07561,3.72e6,4.35e6,4.10e6
CG6834,DRSC16125,3.52e6,4.04e6,3.95e6
CG7248,DRSC10788,3.79e6,4.19e6,4.30e6
Tim23,DRSC21240,3.58e6,4.05e6,4.05e6
CG14096,DRSC10099,3.64e6,4.10e6,4.05e6
CG32354,DRSC10763,3.68e6,4.14e6,4.21e6
CG32354,DRSC10775,3.65e6,3.88e6,3.74e6
CG32354,DRSC21919,3.59e6,4.01e6,4.09e6
CG31637,DRSC02270,3.57e6,4.24e6,3.84e6
CG31637,DRSC03263,3.48e6,3.96e6,3.92e6
Jon65Aiii,DRSC10649,3.74e6,4.29e6,4.18e6
CG31050,DRSC13883,3.46e6,3.94e6,3.90e6
Ptp52F,DRSC06717,3.50e6,3.93e6,4.00e6
CheB42b,DRSC22878,3.37e6,3.89e6,3.88e6
CG12017,DRSC08225,3.45e6,3.90e6,3.94e6
RpL19,DRSC04649,2.28e6,3.07e6,2.15e6
